Results on 1 molecule are retold here after PMC10844685.

This assay deals with T1, Di George syndrome critical region gene 8 (DGCR8) (human (endogenous in TNBC cell lines)) (UniProt Q8WYQ5).
T1 sequence: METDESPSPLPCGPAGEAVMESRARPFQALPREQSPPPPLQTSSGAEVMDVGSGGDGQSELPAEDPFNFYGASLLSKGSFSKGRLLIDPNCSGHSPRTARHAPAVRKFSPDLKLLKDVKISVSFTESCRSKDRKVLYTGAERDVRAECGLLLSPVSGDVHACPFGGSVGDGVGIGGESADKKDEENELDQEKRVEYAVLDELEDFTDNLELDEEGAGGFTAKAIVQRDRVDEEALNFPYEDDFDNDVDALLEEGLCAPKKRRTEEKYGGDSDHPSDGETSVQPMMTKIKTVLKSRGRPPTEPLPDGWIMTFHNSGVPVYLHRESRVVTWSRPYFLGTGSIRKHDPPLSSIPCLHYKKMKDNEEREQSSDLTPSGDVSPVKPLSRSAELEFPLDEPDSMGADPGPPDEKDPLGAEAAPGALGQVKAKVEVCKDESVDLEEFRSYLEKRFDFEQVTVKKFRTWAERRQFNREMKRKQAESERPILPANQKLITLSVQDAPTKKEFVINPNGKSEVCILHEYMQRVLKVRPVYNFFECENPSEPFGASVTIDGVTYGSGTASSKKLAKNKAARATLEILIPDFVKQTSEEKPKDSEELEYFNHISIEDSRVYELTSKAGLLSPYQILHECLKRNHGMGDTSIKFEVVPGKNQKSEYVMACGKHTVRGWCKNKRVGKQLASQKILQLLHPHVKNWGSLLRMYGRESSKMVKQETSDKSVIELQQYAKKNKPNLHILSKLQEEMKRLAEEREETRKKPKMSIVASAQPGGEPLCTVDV
Nature of the assay: co-IP; cells lysed in RIPA buffer with protease inhibitor; 3 ug antibody overnight at 4 C; protein A/G PLUS-agarose 4 h; western blot; with and without ribonuclease treatment; control or METTL14-overexpressing cells.

No constants are given. Whether binding was seen depends on the method and setting. In cells and extracts the contact can be indirect. Some binding calls cover weakened binding; strength is not graded here.

B1: methyltransferase-like protein 14 (METTL14) (protein, UniProt Q9HCE5 1-456)
chain: MDSRLQEIRERQKLRRQLLAQQLGAESADSIGAVLNSKDEQREIAETRETCRASYDTSAPNAKRKYLDEGETDEDKMEEYKDELEMQQDEENLPYEEEIYKDSSTFLKGTQSLNPHNDYCQHFVDTGHRPQNFIRDVGLADRFEEYPKLRELIRLKDELIAKSNTPPMYLQADIEAFDIRELTPKFDVILLEPPLEEYYRETGITANEKCWTWDDIMKLEIDEIAAPRSFIFLWCGSGEGLDLGRVCLRKWGYRRCEDICWIKTNKNNPGKTKTLDPKAVFQRTKEHCLMGIKGTVKRSTDGDFIHANVDIDLIITEEPEIGNIEKPVEIFHIIEHFCLGRRRLHLFGRDSTIRPGWLTVGPTLTNSNYNAETYASYFSAPNSYLTGCTEEIERLRPKSPPPKSKSDRGGGAPRGGGRGGTSAGRGRERNRSNFRGERGGFRGGRGGAHRGGFPPR
Consider B1, for which the binding entry was “binds”.
